# Assay results reported in patent US6376710B2, “Amidine compounds and their use as pesticides” (Sumitomo Chemical Co., Ltd., priority 2000, dated 2002).
# Some results were stated once for a whole list of compounds, not compound by compound.
# Test system: German cockroach (Blattella germanica)
# Test: Test Example 1: topical application of acetone solution to German cockroach female adults, mortality
# Format: in vivo
# Conditions: 20 μg/μl solution in acetone, 1 μl applied to sternal prothorax of female adults; after 7 days
smiles,measurement,value
"CCNC(=Nc1c([N+](=O)[O-])cc(C(F)(F)F)cc1[N+](=O)[O-])C(Cl)Cl [present compound 59, 2,2-Dichloro-N′-(2,6-dinitro-4-trifluoromethylphenyl)-N-ethylacetamidine]",mortality,≥ 90%
